Where two headings read alike, the source gives them in different places. Results are given in words; binding and its absence hold for the method and conditions named. In cells and extracts the contact can be indirect. These calls come from enrichment with a bait or labelling near it, and not all partners need be listed. Where a sequence is shown, tags or fusion partners need not be part of it.
B1: VPS33b (endogenous) (protein, UniProt Q9H267 1-617)
chain: MAFPHRPDAPELPDFSMLKRLARDQLIYLLEQLPGKKDLFIEADLMSPLDRIANVSILKQHEVDKLYKVENKPALSSNEQLCFLVRPRIKNMRYIASLVNADKLAGRTRKYKVIFSPQKFYACEMVLEEEGIYGDVSCDEWAFSLLPLDVDLLSMELPEFFRDYFLEGDQRWINTVAQALHLLSTLYGPFPNCYGIGRCAKMAYELWRNLEEEEDGETKGRRPEIGHIFLLDRDVDFVTALCSQVVYEGLVDDTFRIKCGSVDFGPEVTSSDKSLKVLLNAEDKVFNEIRNEHFSNVFGFLSQKARNLQAQYDRRRGMDIKQMKNFVSQELKGLKQEHRLLSLHIGACESIMKKKTKQDFQELIKTEHALLEGFNIRESTSYIEEHIDRQVSPIESLRLMCLLSITENGLIPKDYRSLKTQYLQSYGPEHLLTFSNLRRAGLLTEQAPGDTLTAVESKVSKLVTDKAAGKITDAFSSLAKRSNFRAISKKLNLIPRVDGEYDLKVPRDMAYVFGGAYVPLSCRIIEQVLERRSWQGLDEVVRLLNCSDFAFTDMTKEDKASSESLRLILVVFLGGCTFSEISALRFLGREKGYRFIFLTTAVTNSARLMEAMSEVKA
B2: ATG4B (endogenous) (protein, UniProt Q9Y4P1 1-393)
chain: MDAATLTYDTLRFAEFEDFPETSEPVWILGRKYSIFTEKDEILSDVASRLWFTYRKNFPAIGGTGPTSDTGWGCMLRCGQMIFAQALVCRHLGRDWRWTQRKRQPDSYFSVLNAFIDRKDSYYSIHQIAQMGVGEGKSIGQWYGPNTVAQVLKKLAVFDTWSSLAVHIAMDNTVVMEEIRRLCRTSVPCAGATAFPADSDRHCNGFPAGAEVTNRPSPWRPLVLLIPLRLGLTDINEAYVETLKHCFMMPQSLGVIGGKPNSAHYFIGYVGEELIYLDPHTTQPAVEPTDGCFIPDESFHCQHPPCRMSIAELDPSIAVGFFCKTEDDFNDWCQQVKKLSLLGGALPMFELVELQPSHLACPDVLNLSLDSSDVERLERFFDSEDEDFEILSL

Key:
Test in all cases: affinity purification with mass spectrometry
[1] = target: T1, Strep-tagged Mtb Rv2074 (Mycobacterium tuberculosis (Erdman strain)) (UniProt P9WLL7)
T1 sequence: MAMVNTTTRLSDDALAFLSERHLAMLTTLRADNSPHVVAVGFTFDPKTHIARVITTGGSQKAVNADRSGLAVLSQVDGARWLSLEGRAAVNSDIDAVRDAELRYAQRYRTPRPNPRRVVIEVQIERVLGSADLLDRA

[2] = target: T2, LpqN-Strep (expressed in 293T cells) (Mycobacterium tuberculosis (Erdman strain)) (UniProt O53780)
T2 sequence: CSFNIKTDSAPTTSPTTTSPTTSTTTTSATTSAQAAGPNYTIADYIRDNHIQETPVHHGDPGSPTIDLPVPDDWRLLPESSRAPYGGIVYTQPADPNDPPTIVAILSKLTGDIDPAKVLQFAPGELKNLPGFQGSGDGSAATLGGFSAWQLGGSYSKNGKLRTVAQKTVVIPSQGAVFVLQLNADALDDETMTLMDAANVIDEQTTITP

[3] = target: T1, Strep-tagged Mtb Rv2074 (Mycobacterium tuberculosis (Erdman strain)); remark: listed apart in the source

Molecule	binding [1]	further results
VPRBP (endogenous) (from UniProt Q9Y4B6 1-1507)	binds	
VCP (endogenous) (from UniProt P55072 1-806)	binds	
B1		binding [2]: binds
B2		binding [3]: binds

Reference: paper doi:10.1101/202598
